PubChem BioAssay AID493246 | Drosophila RNAi Screening Center – 2011
In all, the deposit lists about 21,000 reagents; below is an unselected part of those with a known target gene and a result. Over the whole deposit, 429 (2%) were called active. 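Values are raw and not normalised between plates; calls rest on per-plate z-scores that were not deposited.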 A number with no mark means an inactive call. A plus sign joins genes that one reagent is predicted to hit. Reagent sequences are not shown. Not stated in the record: the amount of reagent, the time to read-out.

Aim: 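Identify essential fly genes by loss of cell viability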 (primary screen)
Cell system: Drosophila Kc and S2R+ cells
Knock-down reagent: long dsRNA against Drosophila genes
Read-out: 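Raw, unnormalised count of remaining cells in each well; per-plate z-scores of cell number underlie the calls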
Reading the numbers: Kc cell number and S2R+ cell number: higher = more cells remaining
Hit rule: 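Counted as a hit if cell number falls by a z-score of at least 3 within its plate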

| Target gene | DRSC id | Kc cell number, rep 1 | Kc cell number, rep 2 | S2R+ cell number, rep 1 | S2R+ cell number, rep 2 |
| --- | --- | --- | --- | --- | --- |
| CG9395 | DRSC03218 | 1.66e6 | 1.59e6 | 1.32e6 | 1.50e6 |
| CG10910 | DRSC06007 | 1.33e6 | 1.38e6 | 1.09e6 | 1.22e6 |
| Ir56d | DRSC06590 | 1.50e6 | 1.58e6 | 1.20e6 | 1.34e6 |
| CG18547 | DRSC15345 | 1.89e6 | 1.94e6 | 1.35e6 | 1.43e6 |
| Nup37 | DRSC14419 | 1.39e6 | 1.45e6 | 1.02e6 | 1.10e6 |
| crc | DRSC03513 | 1.55e6 | 1.66e6 | 1.36e6 | 5.48e5 |
| daed | DRSC00299 | 1.33e6 | 1.37e6 | 6.43e5 | 6.84e5 |
| Pxd | DRSC16805 | 1.49e6 | 1.58e6 | 1.11e6 | 1.19e6 |
| Cyp9f2 | DRSC16635 | 1.52e6 | 1.58e6 | 1.30e6 | 1.34e6 |
| twf | DRSC15466 | 1.50e6 | 1.56e6 | 1.30e6 | 1.30e6 |
| CG5265 | DRSC15756 | 1.27e6 | 1.33e6 | 1.06e6 | 1.21e6 |
| rogdi | DRSC10906 | 1.55e6 | 1.54e6 | 1.20e6 | 1.16e6 |
| Upf2 | DRSC18218 | 1.59e6 | 1.48e6 | 1.06e6 | 1.09e6 |
| mol | DRSC01431 | 1.40e6 | 1.46e6 | 7.99e5 | 9.63e5 |
| mol | DRSC01912 | 1.48e6 | 1.49e6 | 1.22e6 | 1.32e6 |
| mol | DRSC02479 | 1.54e6 | 1.61e6 | 1.22e6 | 1.30e6 |
| D | DRSC11132 | 1.54e6 | 1.50e6 | 1.21e6 | 1.29e6 |
| ppk28 | DRSC19919 | 1.46e6 | 1.42e6 | 1.04e6 | 1.07e6 |
| CG14434 | DRSC17927 | 1.52e6 | 1.54e6 | 1.07e6 | 1.19e6 |
| Amyrel | DRSC05920 | 1.41e6 | 1.56e6 | 1.19e6 | 1.15e6 |
| CG1492 | DRSC19605 | 1.62e6 | 1.60e6 | 1.14e6 | 1.21e6 |
| CG12194 | DRSC00345 | 1.56e6 | 1.63e6 | 1.26e6 | 1.34e6 |
| Cyp316a1 | DRSC11130 | 1.32e6 | 1.31e6 | 1.07e6 | 1.17e6 |
| CG2519 | DRSC12312 | 1.61e6 | 1.67e6 | 1.19e6 | 1.29e6 |
| CG6108 (retired record) | DRSC02929 | 1.60e6 | 1.72e6 | 1.23e6 | 1.39e6 |
| Hsp70Bc | DRSC16053 | 1.53e6 | 1.57e6 | 1.14e6 | 1.21e6 |
| Hydr2 | DRSC00607 | 1.32e6 | 1.32e6 | 9.04e5 | 1.05e6 |
| CG2006 | DRSC15412 | 5.50e5 | – | 7.16e5 | – |
| Socs44A | DRSC06828 | 1.57e6 | 1.62e6 | 1.22e6 | 1.37e6 |
| Klc | DRSC11203 | 1.45e6 | 1.48e6 | 1.28e6 | 1.27e6 |
| tacc | DRSC12019 | 1.55e6 | 1.76e6 | 1.26e6 | 1.41e6 |
| tacc | DRSC12388 | 1.44e6 | 1.46e6 | 1.54e6 | 1.54e6 |
| deltaCOP | DRSC18760 | 6.07e5 | – | 6.21e5 | – |
| AnxB9 | DRSC14111 | 1.59e6 | 1.63e6 | 1.27e6 | 1.34e6 |
| Obp56c | DRSC06552 | 1.43e6 | 1.40e6 | 1.08e6 | 1.18e6 |
| l(2)34Fd | DRSC01911 | 1.25e6 | 1.39e6 | 1.33e6 | 1.32e6 |
| Tdrd3 | DRSC10016 | 1.30e6 | 1.40e6 | 1.24e6 | 1.34e6 |
| CG7024 | DRSC18414 | 1.46e6 | 1.44e6 | 1.01e6 | 1.16e6 |
| CG13869 + CG11099 | DRSC06428 | 1.76e6 | 1.84e6 | 1.21e6 | 1.40e6 |
| Nup133 | DRSC16150 | 1.52e6 | 1.65e6 | 1.10e6 | 1.23e6 |

An excerpt from above, reduced to “S2R+ cell number, rep 2”.
AnxB9 [DRSC14111]: 1.34e6
Obp56c [DRSC06552]: 1.18e6
